Literature values as cited in patent US20220016048A1, “CANNABIDIOL-TYPE CANNABINOID COMPOUND” (GW Research Limited, priority 2018, published 2022).
For at least one compound, name, drawing or mass did not settle the structure.

Test system: PCP-induced social behaviour deficit in female rats
Settings: background statement; cited from earlier work

SMILES: CNC1=Nc2ccc(Cl)cc2C(c2ccccc2)=[N+]([O-])C1 [chlordiazepoxide]
- attenuation of PCP-induced social behaviour deficit: not attenuated
